In US20260184794A1, “ANTIBODIES AGAINST INTEGRIN ALPHA 11 BETA 1 AND USES THEREOF” (Momenta Pharmaceuticals, Inc., priority 2022, published 2026):
Results are given in words; binding and its absence hold for the method and conditions named. Some results given as binding are weak or reduced against the parent protein; the word gives no strength.

Chains of the proteins cited; added tags and fusions are not shown. Lines headed by an entry give the natural chain unless they say otherwise; changes in a name come on top.
UniProt Q9UKX5: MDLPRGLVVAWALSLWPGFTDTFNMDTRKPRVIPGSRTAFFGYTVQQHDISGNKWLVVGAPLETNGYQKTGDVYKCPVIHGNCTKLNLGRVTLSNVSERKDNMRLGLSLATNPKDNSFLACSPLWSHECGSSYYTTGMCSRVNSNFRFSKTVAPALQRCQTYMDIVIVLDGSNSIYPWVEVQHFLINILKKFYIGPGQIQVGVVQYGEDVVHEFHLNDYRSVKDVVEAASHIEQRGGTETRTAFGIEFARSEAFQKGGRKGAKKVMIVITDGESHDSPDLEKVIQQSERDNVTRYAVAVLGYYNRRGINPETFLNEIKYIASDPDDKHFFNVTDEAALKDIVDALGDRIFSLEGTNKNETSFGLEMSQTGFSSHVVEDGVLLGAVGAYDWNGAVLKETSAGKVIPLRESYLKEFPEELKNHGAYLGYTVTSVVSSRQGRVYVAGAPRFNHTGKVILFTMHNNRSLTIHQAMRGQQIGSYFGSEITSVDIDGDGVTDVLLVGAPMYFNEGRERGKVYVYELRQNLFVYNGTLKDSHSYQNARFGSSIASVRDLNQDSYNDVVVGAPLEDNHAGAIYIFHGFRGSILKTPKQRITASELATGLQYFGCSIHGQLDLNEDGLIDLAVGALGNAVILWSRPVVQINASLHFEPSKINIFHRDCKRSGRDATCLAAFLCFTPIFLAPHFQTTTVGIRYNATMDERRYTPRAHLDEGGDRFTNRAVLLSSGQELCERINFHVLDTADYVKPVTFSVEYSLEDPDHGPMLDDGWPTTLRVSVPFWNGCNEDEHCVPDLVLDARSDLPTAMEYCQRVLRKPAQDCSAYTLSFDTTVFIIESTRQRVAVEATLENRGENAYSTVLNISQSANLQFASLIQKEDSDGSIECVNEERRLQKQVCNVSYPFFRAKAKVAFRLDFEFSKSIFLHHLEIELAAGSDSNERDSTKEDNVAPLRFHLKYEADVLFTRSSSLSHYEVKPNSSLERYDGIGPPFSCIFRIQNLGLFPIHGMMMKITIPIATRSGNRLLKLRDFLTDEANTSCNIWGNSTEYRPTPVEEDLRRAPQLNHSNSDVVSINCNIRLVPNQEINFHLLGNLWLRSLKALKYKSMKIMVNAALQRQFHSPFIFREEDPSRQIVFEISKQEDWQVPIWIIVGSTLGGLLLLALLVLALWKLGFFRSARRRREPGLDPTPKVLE
UniProt P05556: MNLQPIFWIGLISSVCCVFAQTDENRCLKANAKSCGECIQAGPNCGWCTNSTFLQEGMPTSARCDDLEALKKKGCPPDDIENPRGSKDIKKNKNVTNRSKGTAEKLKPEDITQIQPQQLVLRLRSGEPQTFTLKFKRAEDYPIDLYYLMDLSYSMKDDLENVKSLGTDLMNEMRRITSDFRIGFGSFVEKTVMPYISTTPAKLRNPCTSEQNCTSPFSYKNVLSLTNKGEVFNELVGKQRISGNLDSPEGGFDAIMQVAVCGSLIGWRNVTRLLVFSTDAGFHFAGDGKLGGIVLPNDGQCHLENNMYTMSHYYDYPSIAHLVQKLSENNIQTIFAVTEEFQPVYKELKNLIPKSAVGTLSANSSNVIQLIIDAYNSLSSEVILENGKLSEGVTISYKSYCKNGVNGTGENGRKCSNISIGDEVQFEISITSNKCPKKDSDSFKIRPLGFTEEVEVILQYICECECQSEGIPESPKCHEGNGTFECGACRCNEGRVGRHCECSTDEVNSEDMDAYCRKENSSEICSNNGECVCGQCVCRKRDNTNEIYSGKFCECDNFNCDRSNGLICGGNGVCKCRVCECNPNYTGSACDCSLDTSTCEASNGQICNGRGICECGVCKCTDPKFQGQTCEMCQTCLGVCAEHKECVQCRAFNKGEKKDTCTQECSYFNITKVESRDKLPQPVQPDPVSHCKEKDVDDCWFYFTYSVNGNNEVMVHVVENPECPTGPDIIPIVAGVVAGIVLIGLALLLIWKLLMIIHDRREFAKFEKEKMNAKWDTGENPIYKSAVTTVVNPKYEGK

What follows are binders tested against α11β1 on human pulmonary myofibroblasts (human) (UniProt Q9UKX5+P05556) (assay: flow cytometry on human pulmonary myofibroblasts (title: Myofibroblast Binding); MFI against Log [µg/ml]).

Row | Binder | binding
1 | 1994-01-C7 variant 60 (antibody, V domains shown) VH: QVQLVQSGAEVKKPGASVKVSCKASGYTFTSYGISWVRQAPGQGLEWMGWISAYNSNTNYAQKLQGRVTMTTDTSTSTAYMELRSLRSDDTAAYYCARVTGITGTTIGPWGQGTMVTVSS VL: DIQMTQSPSSLSASVGDRVTITCRASQSISSYLNWYQQKPGKAPKLLIYDASSLESGVPSRFSGSGSGTEFTLTISSLQPDDFAVYYCQQYNNWPQTFGQGTKVEIK | binds
2 | 1994-01-C7 variant 58 (antibody, V domains shown) VH: QVQLVQSGAEVKKPGASVKVSCKASGYTFTSYGISWVRQAPGQGLEWMGWISAYNANVNYAQKLQGRVTMTTDTSTSTAYMELRSLRSDDTAAYYCARVTGITGTTIGPWGQGTMVTVSS VL: DIQMTQSPSSLSASVGDRVTITCRASQSISSYLNWYQQKPGKAPKLLIYDASSLESGVPSRFSGSGSGTEFTLTISSLQPDDFAVYYCQQYNNWPQTFGQGTKVEIK | binds
3 | 1994-01-C7 variant 54 (antibody, V domains shown) VH: QVQLVQSGAEVKKPGASVKVSCKASGYTFTSYGISWVRQAPGQGLEWMGWISAYNANTNYAQKLQGRVTMTTDTSTSTAYMELRSLRSDDTAAYYCARVTGITGTTIGPWGQGTMVTVSS VL: DIQMTQSPSSLSASVGDRVTITCRASQSISSYLNWYQQKPGKAPKLLIYDASSLESGVPSRFSGSGSGTEFTLTISSLQPDDFAVYYCQQYNNWPQTFGQGTKVEIK | binds
